Experimental findings from publication PMC9729291 are described below.

Protein sequences, listed by entry. Tags and fused reporters are not part of them.
UniProt Q12834: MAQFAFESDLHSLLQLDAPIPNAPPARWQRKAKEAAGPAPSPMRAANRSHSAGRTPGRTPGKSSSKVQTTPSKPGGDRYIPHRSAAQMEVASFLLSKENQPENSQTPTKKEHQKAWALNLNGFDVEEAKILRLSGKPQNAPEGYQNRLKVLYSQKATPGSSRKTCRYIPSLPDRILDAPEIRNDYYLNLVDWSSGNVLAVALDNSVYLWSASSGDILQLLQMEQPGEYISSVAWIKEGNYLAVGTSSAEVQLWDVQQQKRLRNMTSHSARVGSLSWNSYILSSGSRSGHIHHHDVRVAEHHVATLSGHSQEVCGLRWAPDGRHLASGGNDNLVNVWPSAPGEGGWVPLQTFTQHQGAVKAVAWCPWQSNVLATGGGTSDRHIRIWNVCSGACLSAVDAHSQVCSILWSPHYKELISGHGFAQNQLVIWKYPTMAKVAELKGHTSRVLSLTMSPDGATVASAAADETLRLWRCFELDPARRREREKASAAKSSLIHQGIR
UniProt P63151: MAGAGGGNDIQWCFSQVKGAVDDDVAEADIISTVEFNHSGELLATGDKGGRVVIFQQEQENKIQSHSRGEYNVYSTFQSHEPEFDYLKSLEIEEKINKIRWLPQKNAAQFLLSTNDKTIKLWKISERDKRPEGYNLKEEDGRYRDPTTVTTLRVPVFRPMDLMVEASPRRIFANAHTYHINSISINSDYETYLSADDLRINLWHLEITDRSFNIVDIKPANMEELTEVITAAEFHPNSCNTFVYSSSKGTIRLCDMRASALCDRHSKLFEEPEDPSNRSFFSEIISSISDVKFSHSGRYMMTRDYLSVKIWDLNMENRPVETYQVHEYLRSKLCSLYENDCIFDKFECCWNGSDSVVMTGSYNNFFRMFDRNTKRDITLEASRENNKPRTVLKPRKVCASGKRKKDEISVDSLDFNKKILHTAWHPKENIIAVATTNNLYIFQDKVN

To fix the notation:
T1: SLFN5 (Schlafen family member 5), endogenous (human (endogenous in U2OS and Jurkat E6.1)) (UniProt Q08AF3)
T1 sequence: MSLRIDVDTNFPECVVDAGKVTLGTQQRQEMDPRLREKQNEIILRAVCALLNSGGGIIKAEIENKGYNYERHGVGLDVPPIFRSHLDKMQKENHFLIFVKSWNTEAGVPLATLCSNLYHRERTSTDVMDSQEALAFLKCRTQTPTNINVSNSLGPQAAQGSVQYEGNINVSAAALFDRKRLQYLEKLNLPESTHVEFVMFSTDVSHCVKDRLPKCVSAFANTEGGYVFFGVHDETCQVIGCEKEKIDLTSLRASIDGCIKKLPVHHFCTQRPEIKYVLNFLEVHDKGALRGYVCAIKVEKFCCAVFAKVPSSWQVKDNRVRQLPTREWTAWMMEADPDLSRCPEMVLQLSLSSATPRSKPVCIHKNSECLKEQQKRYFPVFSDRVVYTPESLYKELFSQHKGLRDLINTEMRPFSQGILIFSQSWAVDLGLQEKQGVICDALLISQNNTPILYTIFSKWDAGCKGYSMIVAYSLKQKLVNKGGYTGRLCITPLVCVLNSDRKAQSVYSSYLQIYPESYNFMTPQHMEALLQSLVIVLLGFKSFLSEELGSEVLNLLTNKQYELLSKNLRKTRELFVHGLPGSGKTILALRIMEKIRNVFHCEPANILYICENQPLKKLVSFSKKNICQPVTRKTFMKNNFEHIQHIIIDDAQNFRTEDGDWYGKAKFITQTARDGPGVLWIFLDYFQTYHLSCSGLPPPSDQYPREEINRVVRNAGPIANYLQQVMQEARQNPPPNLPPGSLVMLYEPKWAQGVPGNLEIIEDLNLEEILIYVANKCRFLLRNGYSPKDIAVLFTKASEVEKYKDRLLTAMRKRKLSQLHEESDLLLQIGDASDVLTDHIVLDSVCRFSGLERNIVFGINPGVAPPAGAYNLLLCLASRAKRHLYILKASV

B1: serine/threonine-protein phosphatase 5, endogenous (protein, UniProt P53041 1-499)
chain: MAMAEGERTECAEPPRDEPPADGALKRAEELKTQANDYFKAKDYENAIKFYSQAIELNPSNAIYYGNRSLAYLRTECYGYALGDATRAIELDKKYIKGYYRRAASNMALGKFRAALRDYETVVKVKPHDKDAKMKYQECNKIVKQKAFERAIAGDEHKRSVVDSLDIESMTIEDEYSGPKLEDGKVTISFMKELMQWYKDQKKLHRKCAYQILVQVKEVLSKLSTLVETTLKETEKITVCGDTHGQFYDLLNIFELNGLPSETNPYIFNGDFVDRGSFSVEVILTLFGFKLLYPDHFHLLRGNHETDNMNQIYGFEGEVKAKYTAQMYELFSEVFEWLPLAQCINGKVLIMHGGLFSEDGVTLDDIRKIERNRQPPDSGPMCDLLWSDPQPQNGRSISKRGVSCQFGPDVTKAFLEENNLDYIIRSHEVKAEGYEVAHGGRCVTVFSAPNYCDQMGNKASYIHLQGSDLRPQFHQFTAVPHPNVKPMAYANTLLQLGMM
B2: origin recognition complex subunit 2, endogenous (protein, UniProt Q13416 1-577)
chain: MSKPELKEDKMLEVHFVGDDDVLNHILDREGGAKLKKERAQLLVNPKKIIKKPEYDLEEDDQEVLKDQNYVEIMGRDVQESLKNGSATGGGNKVYSFQNRKHSEKMAKLASELAKTPQKSVSFSLKNDPEITINVPQSSKGHSASDKVQPKNNDKSEFLSTAPRSLRKRLIVPRSHSDSESEYSASNSEDDEGVAQEHEEDTNAVIFSQKIQAQNRVVSAPVGKETPSKRMKRDKTSDLVEEYFEAHSSSKVLTSDRTLQKLKRAKLDQQTLRNLLSKVSPSFSAELKQLNQQYEKLFHKWMLQLHLGFNIVLYGLGSKRDLLERFRTTMLQDSIHVVINGFFPGISVKSVLNSITEEVLDHMGTFRSILDQLDWIVNKFKEDSSLELFLLIHNLDSQMLRGEKSQQIIGQLSSLHNIYLIASIDHLNAPLMWDHAKQSLFNWLWYETTTYSPYTEETSYENSLLVKQSGSLPLSSLTHVLRSLTPNARGIFRLLIKYQLDNQDNPSYIGLSFQDFYQQCREAFLVNSDLTLRAQLTEFRDHKLIRTKKGTDGVEYLLIPVDNGTLTDFLEKEEEEA

Results are given in words; binding and its absence hold for the method and conditions named. Binding seen in cells or lysates may run through a third protein. These calls come from enrichment with a bait or labelling near it, and not all partners need be listed.

In the experiment the target is T1, SLFN5 (Schlafen family member 5), endogenous (human (endogenous in U2OS and Jurkat E6.1)). The experiment in a line: affinity purification with mass spectrometry; endogenous SLFN5 precipitated from nuclear lysate with anti-SLFN5 #112/5/6 covalently coupled to resin, native conditions, 150 mM NaCl binding, 250 mM NaCl washes, 4 °C overnight; IgG control IP; three replicates, label-free quantification.
Consider “APC/C activator protein CDC20, endogenous (from UniProt Q12834 1-499)”, for which the binding entry is given as “binds”.

Take “serine/threonine-protein phosphatase 2A regulatory subunit B55α, endogenous (from UniProt P63151 1-447)”: the binding result is “binds”. As for B1, the entry is “binds”; as for B2, “binds”.
